Laboratory results as given in publication PMC9343251.
No constants are given. Whether binding was seen depends on the method and setting. Binding seen in cells or lysates may run through a third protein. Some entries that bind do so weakly or less than the wild type.

Chains of the proteins cited; added tags and fusions are not shown.
UniProt P19634: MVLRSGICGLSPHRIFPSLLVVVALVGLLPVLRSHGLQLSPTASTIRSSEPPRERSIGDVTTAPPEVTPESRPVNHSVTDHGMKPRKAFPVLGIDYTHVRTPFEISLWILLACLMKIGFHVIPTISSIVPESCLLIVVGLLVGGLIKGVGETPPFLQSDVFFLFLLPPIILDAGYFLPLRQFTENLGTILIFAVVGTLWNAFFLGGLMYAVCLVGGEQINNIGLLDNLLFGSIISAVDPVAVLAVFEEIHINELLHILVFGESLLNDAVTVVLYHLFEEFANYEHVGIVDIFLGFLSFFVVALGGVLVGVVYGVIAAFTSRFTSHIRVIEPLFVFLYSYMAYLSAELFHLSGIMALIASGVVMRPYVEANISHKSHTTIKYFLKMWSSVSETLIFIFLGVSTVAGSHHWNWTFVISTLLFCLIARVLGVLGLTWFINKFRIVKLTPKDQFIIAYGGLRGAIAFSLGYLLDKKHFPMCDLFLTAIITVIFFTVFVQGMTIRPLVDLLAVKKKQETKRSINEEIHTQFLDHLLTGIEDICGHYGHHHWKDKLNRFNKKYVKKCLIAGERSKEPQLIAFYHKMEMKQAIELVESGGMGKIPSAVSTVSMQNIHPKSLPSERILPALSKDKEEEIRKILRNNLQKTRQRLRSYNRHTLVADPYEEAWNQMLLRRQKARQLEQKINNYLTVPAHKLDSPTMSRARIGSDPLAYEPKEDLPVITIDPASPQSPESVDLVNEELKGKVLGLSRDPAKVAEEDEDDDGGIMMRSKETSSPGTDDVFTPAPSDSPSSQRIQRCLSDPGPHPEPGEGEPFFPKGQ
UniProt Q06187: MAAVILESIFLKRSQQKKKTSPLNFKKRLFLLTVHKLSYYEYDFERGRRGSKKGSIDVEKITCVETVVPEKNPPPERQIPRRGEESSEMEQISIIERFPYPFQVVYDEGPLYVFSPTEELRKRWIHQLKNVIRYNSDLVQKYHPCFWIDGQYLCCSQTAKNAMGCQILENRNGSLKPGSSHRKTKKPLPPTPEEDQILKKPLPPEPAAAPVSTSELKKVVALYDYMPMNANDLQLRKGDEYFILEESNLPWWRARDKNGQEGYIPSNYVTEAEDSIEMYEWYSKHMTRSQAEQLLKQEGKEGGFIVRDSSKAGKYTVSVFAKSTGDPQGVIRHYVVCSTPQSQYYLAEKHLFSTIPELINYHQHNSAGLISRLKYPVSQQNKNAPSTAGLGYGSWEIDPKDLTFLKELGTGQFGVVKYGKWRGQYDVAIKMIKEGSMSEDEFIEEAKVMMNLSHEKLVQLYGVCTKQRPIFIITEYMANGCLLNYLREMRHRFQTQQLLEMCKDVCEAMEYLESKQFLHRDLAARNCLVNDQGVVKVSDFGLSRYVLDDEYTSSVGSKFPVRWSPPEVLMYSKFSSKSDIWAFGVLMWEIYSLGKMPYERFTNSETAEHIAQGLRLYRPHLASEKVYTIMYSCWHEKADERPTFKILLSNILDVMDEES

Biological target: sodium/hydrogen exchanger (NHE1) (human (endogenous in MV4-11)) (UniProt P19634)
Assay: co-IP; MV4-11 lysate in NP-40-based lysis buffer with protease and phosphatase inhibitors; 500 ug total protein with 2 ug anti-NHE1 or anti-FLT3 antibody at 4 °C overnight; Protein G sepharose 2 hours at 4 °C; western blot

In the case of “BTK (from UniProt Q06187 1-659) (enzyme)”, the binding was “binds”.
